± gives the standard deviation of the averaged measurements. Only a part is listed here, and it is no random draw.
Key:
Assay in all cases: NP40-soluble protein abundance relative to vehicle (solubility fold change) (ratio); higher = more soluble protein in presence of ATP
[1] = biological target: T1, UniProt P31350 and related entries
T1 sequence (whole entry): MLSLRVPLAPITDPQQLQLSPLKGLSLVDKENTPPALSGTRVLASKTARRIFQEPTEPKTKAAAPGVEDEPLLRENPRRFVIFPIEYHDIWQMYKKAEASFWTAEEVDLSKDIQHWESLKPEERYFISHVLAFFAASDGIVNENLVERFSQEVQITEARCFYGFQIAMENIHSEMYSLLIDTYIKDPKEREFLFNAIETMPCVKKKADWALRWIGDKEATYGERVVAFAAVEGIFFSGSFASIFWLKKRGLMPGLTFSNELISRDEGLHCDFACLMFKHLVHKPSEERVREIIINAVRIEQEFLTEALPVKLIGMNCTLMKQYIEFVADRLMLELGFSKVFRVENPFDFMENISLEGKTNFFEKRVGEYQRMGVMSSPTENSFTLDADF
Outline: (§1)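 Data come from three independent experiments in which Dounce-homogenised Jurkat crude lysate was treated at eight concentrations from 0.1 to 10 mM. Treatment ran 10 min at room temperature and then 3 min at 37 °C, after which 0.8% NP40 and benzonase were added for 60 min at 4 °C before ultracentrifugation. The supernatant underwent TMT labelling and LC-MS/MS, and vsn-normalised intensities were expressed as fold change against the detergent-processed vehicle in each replicate.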

[2] = biological target: T2, UniProt P32856 and related entries
T2 sequence (whole entry): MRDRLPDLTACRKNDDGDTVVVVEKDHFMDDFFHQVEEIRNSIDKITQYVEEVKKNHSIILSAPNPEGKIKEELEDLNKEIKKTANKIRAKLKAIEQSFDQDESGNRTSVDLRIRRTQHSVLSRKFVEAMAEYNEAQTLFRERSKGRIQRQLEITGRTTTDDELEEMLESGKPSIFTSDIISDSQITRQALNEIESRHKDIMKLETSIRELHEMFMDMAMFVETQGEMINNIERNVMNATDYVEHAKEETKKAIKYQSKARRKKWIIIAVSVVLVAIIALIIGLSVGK
Outline: as §1

[3] = biological target: T3, UniProt P33121 and related entries
T3 sequence (whole entry): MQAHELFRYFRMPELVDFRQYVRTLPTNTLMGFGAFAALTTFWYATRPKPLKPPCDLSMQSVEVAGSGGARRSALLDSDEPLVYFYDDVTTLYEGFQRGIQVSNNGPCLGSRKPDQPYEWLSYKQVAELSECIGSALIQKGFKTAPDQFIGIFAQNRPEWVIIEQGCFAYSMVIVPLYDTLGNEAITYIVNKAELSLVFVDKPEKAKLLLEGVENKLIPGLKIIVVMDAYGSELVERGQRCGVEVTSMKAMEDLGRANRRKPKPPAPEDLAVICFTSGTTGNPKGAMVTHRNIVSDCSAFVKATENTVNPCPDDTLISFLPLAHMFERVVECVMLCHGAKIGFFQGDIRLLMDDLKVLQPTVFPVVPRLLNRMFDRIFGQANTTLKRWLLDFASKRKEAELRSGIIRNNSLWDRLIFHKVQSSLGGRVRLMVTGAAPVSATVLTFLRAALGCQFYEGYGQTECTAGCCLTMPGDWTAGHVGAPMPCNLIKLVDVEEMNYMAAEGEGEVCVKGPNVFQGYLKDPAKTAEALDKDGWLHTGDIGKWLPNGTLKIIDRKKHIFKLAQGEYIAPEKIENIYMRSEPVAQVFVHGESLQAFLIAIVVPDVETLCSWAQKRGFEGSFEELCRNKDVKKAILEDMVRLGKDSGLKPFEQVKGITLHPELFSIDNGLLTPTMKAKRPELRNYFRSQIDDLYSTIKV
Outline: as §1

[4] = biological target: T4, UniProt P35613 and related entries
T4 sequence (whole entry): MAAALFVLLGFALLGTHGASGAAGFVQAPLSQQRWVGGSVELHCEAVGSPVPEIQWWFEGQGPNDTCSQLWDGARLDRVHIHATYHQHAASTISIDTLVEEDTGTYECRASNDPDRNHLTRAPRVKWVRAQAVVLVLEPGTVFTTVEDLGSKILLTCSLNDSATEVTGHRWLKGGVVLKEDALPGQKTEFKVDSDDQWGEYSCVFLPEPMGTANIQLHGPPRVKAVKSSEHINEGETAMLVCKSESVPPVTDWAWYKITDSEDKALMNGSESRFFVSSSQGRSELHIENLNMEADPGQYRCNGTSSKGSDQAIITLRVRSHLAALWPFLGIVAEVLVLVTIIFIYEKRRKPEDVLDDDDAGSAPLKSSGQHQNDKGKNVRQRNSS
Outline: as §1

[5] = biological target: T5, UniProt P35626
T5 sequence (whole entry): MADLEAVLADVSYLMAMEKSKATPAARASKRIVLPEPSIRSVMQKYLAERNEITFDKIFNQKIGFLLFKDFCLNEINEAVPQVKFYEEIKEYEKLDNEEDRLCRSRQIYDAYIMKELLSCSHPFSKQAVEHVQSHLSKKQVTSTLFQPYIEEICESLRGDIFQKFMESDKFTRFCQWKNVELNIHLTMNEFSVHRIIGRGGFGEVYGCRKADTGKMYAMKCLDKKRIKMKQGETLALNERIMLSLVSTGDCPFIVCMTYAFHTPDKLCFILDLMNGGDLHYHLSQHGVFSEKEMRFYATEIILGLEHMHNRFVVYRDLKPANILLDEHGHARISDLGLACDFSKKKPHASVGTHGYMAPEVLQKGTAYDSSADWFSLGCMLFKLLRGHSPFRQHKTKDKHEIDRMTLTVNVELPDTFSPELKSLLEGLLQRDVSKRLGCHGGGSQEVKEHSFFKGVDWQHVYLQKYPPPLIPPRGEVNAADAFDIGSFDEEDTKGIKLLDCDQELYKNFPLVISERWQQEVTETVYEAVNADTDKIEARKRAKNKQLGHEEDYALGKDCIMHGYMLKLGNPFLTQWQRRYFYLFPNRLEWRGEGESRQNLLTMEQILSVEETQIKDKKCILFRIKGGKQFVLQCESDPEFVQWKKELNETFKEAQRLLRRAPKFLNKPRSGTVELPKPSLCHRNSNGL
Outline: as §1

[6] = biological target: T6, YWHAB (UniProt P31946)
T6 sequence (whole entry): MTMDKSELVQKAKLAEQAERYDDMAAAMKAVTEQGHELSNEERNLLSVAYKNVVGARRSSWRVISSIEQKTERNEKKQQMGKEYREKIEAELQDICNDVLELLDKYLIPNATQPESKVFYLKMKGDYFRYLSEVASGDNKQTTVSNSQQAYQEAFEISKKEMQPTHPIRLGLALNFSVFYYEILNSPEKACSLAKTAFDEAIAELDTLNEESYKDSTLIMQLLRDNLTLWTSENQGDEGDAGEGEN
Outline: as §1

Nc1ncnc2c1ncn2[C@@H]1O[C@H](COP(=O)(O)OP(=O)(O)OP(=O)(O)O)[C@@H](O)[C@H]1O [adenosine triphosphate]
NP40-soluble protein abundance ([1]; concentration: 1mM): 1.04 ± 0.15
NP40-soluble protein abundance ([1]; concentration: 2mM): 1.04 ± 0.14
NP40-soluble protein abundance ([1]; concentration: 4mM): 1.03 ± 0.13
NP40-soluble protein abundance ([1]; concentration: 6mM): 0.984 ± 0.15
NP40-soluble protein abundance ([1]; concentration: 8mM): 1.03 ± 0.14
NP40-soluble protein abundance ([1]; concentration: 10mM): 0.998 ± 0.088
NP40-soluble protein abundance ([2]; concentration: 1mM): 1.02 ± 0.013
NP40-soluble protein abundance ([2]; concentration: 2mM): 1.01 ± 0.03
NP40-soluble protein abundance ([2]; concentration: 4mM): 1.01 ± 0.028
NP40-soluble protein abundance ([2]; concentration: 6mM): 1.03 ± 0.047
NP40-soluble protein abundance ([2]; concentration: 8mM): 1.003 ± 0.0046
NP40-soluble protein abundance ([2]; concentration: 10mM): 0.9941 ± 0.008
NP40-soluble protein abundance ([3]; concentration: 1mM): 1.06 ± 0.092
NP40-soluble protein abundance ([3]; concentration: 2mM): 1.02 ± 0.085
NP40-soluble protein abundance ([3]; concentration: 4mM): 1.03 ± 0.091
NP40-soluble protein abundance ([3]; concentration: 6mM): 1.01 ± 0.12
NP40-soluble protein abundance ([3]; concentration: 8mM): 1.03 ± 0.095
NP40-soluble protein abundance ([3]; concentration: 10mM): 1.02 ± 0.07
NP40-soluble protein abundance ([4]; concentration: 1mM): 0.943 ± 0.064
NP40-soluble protein abundance ([4]; concentration: 2mM): 0.943 ± 0.021
NP40-soluble protein abundance ([4]; concentration: 4mM): 0.936 ± 0.065
NP40-soluble protein abundance ([4]; concentration: 6mM): 0.972 ± 0.011
NP40-soluble protein abundance ([4]; concentration: 8mM): 0.935 ± 0.069
NP40-soluble protein abundance ([4]; concentration: 10mM): 0.877 ± 0.081
NP40-soluble protein abundance ([5]; concentration: 1mM): 1.06 ± 0.053
NP40-soluble protein abundance ([5]; concentration: 2mM): 1.03 ± 0.048
NP40-soluble protein abundance ([5]; concentration: 4mM): 1.05 ± 0.033
NP40-soluble protein abundance ([5]; concentration: 6mM): 1.02 ± 0.046
NP40-soluble protein abundance ([5]; concentration: 8mM): 1.05 ± 0.015
NP40-soluble protein abundance ([5]; concentration: 10mM): 1.02 ± 0.035
NP40-soluble protein abundance ([6]; concentration: 1mM): 0.998 ± 0.13
NP40-soluble protein abundance ([6]; concentration: 2mM): 0.947 ± 0.062
NP40-soluble protein abundance ([6]; concentration: 4mM): 0.936 ± 0.034
NP40-soluble protein abundance ([6]; concentration: 6mM): 0.989 ± 0.088
NP40-soluble protein abundance ([6]; concentration: 8mM): 0.925 ± 0.027
NP40-soluble protein abundance ([6]; concentration: 10mM): 0.842 ± 0.075
